Source: patent US9962341B2, “Active pharmaceutical ingredient (API) comprising cannabinoids for use in the treatment of cancer” (GW Pharma Limited, priority 2014, dated 2018)

Tests used:
[1] = tested on: BT474; experiment: Cell viability (CellTiter-Blue, 72 h), phytocannabinoids alone and in combination, BT474 breast cancer cells; format: cell-based; conditions: BT474, 1% FBS
Protocol: (§1) The cell lines tested in this Example were as follows. Breast cancer: MDA-MB-231; SK-BR3; and BT474. Liver cancer: HepG2.
(§2) The phytocannabinoids were tested alone and in various ratioed combinations in media containing final concentrations of 10% and 1% foetal bovine serum at 72 h for the breast and prostate cancer lines and 1% foetal bovine serum for the liver cancer line HepG2.
(§3) Each tumour cell line was maintained in vitro in RPMI 1640+10% heat inactivated FBS and 2 mM L-glutamine (growth media) at 37° C. in 5% CO2 and humidified conditions. The cells were harvested, washed, re-suspended into growth medium and counted. The cells were re-suspended into assay media (RPMI 1640+5% heat inactivated FBS+ and 2 mM L-glutamine) at 8×104-2×10^5 cells/ml (dependent upon cell type) and plated into the middle 240 wells of 384 well tissue culture plates (Corning CellBind, black-wall plates) 12.5 μl/well aliquots; 62.5 μl of growth media was aliquoted into the outer wells. There were 4 plates for each cell line. The plates were incubated overnight at 37° C., in 5% humidified CO2.
(§4) The phytocannabinoid test compounds were prepared in 100% DMSO vehicle at a stock concentration of 10 mM.
(§5) Starting with the 10 mM stock, the compounds were diluted to 125 μM in FBS-free growth media.
(§6) These were diluted in FBS-free growth media to 125 μM before serial dilution.
(§7) 5 volumes of CBD 10 mM stock was added to 1 volume of the other agent (also at 10 mM) and 4 volumes of DMSO. This made a final concentration of 5 mM:1 mM. This was then diluted in FBS-free growth media so the top concentration of CBD would be 125 μM (before serial dilution). Each compound and compound combination stock was serially diluted in FBS-free growth media (containing 1.25% v/v DMSO) from 125 μM to 41.7, 13.89, 4.63, 1.54, 0.514, 0.171, 0.057 and 0.019 μM (1.25× final assay concentrations). Vehicle was prepared at equivalent dilutions in assay media. The top final concentration of compound in the assay was always 100 μM so CBD5:1CBG was 100 μM CBD and 20 μM CBG.
(§8) Taxotere SOC was prepared at a stock concentration of 1 mM in 100% DMSO. Taxotere was serially diluted from the stock solution into FBS-free growth media to 12.5 μM, then serially diluted in FBS-free growth media containing 1.25% DMSO to 4.17, 1.39, 0.46, 0.154, 0.051, 0.017, 0.006, 0.002 μM (1.25× final assay concentrations).
(§9) This was then serially diluted in FBS-free growth media to 0.417, 0.139, 0.046, 0.0154, 0.0051, 0.0017, 0.0006, 0.0002 μM (1.25× final assay concentrations). This was plated as a positive control for the SKBR3 & BT474 cell lines. 50 μl per well of compound/vehicle dilutions was added to the plates in replicates of 6. Where applicable total volume in the well was made up to 62.5 μl with assay media.
(§10) The plates were incubated for 72 h at 37° C. in 5% humidified CO2. To develop the plates, at 72 h, 10 μl of CellTiter-Blue™ reagent was added to each test/blank well. […] Fluorescence was measured using a Flex II Station plate reader (570 nm excitation wavelength, 600 nm emission wavelength, 590 nm cut-off) after 3 h. […]
(§11) The raw data values expressed in relative fluorescent units were normalised to the vehicle for each individual plate and any reduction in fluorescence indicated a decrease in viability.
(§12) The data were analysed in GraphPad PRISM using a non-linear sigmoidal plot with variable slope (asymmetric five point linear regression) and where possible an IC50 value for each single compound and combination was generated. […]

[2] = tested on: SKBR3; experiment: Cell viability (CellTiter-Blue, 72 h), SKBR3 breast cancer cells; format: cell-based; conditions: SKBR3, 1% FBS
Protocol: as §1, §2, §3, §4, §5, §6, §7, §8, §9, §10, §11, §12

SMILES | m (shape parameter of dose effect curve) [1] | m (shape parameter of dose effect curve) [2]
C=C(C)[C@@H]1CCC(C)=C[C@H]1c1c(O)cc(CCCCC)cc1O [CBD, Cannabidiol] | 1.93 | 2.64
C=C(C)[C@@H]1CCC(C)=C[C@H]1c1c(O)cc(CCCCC)c(C(=O)O)c1O [CBDA, Cannabidiolic acid] | 3.20 | 2.57
CCCCCc1cc(O)c(C/C=C(\C)CCC=C(C)C)c(O)c1 [CBG, Cannabigerol] | 1.76 | 2.51
CCCCCc1cc(O)c(C/C=C(\C)CCC=C(C)C)c(O)c1C(=O)O [CBGA, Cannabigerolic acid] | 2.06 | 1.97
CCCc1cc(O)c2c(c1)OC(C)(C)[C@@H]1CCC(C)=C[C@@H]21 [THCV, Tetrahydrocannabivarin] | 1.93 | 1.94
